Test results taken from patent US8470806B2, “Perhexiline for treating chronic heart failure” (Heart Metabolics Limited, priority 2004, dated 2013).

System: patients with CHF
Assay: Cardiopulmonary exercise test (treadmill, Weber protocol, respiratory gas analysis)
Format: in vivo, human
Conditions: Post, after 8 weeks
Description: An embodiment of the invention will now be described by way of example only wherein a double-blind, randomised, placebo-controlled study was undertaken in order to investigate the effects of perhexiline on chronic heart failure. 56 patients with CHF were recruited and all provided written informed consent. Entry criteria were as follows: left ventricular ejection fraction (LVEF) <40%, optimally medicated heart failure with New York Heart Association (NYHA) Class II-III symptoms. Cardiopulmonary exercise testing with respiratory gas analysis, completion of the Minnesota Living with Heart Failure Questionnaire (MLHFQ) and 2-D echocardiography were performed at baseline on all patients. Incremental exercise testing with assessment of respiratory gas exchange was performed on a treadmill using the Weber protocol. Breath by breath respiratory gases were measured during exercise using a Pulmolab EX670 system mass spectrometer which was calibrated before every study. Raw data were averaged to 30 second intervals and oxygen consumption during peak exercise was obtained (VO2 max; ml/kg/min). Electrocardiograms and blood pressure were monitored throughout. Exercise was terminated at the subject's request due to fatigue or breathlessness. […] Data were analyzed with SPSS 11.5 for Windows® and expressed as mean±standard error of mean. […]

With `C1CCC(C(CC2CCCCN2)C2CCCCC2)CC1` (stereo not shown) [Perhexiline, 2-(2,2-dicyclohexylethyl)piperidine] the “Peak Exercise Heart Rate” value was 120 ± 5 min⁻¹.
